{"source": "patent US20250041577A1", "about": "“SHORT-PULSE SONODYNAMIC TREATMENT APPARATUS” (Insightec, Ltd., priority 2021, published 2025)", "assay": "Plasma and blood pharmacokinetics of 5-ALA and PPIX after IV SONALA-001 (LC-MS/MS)", "type": "in vivo, human", "settings": "post 10 mg/kg IV Sonala-001 administration", "procedure": "Six hours prior to MRgFUS, adult patients with recurrent GBM are administered SONALA-001 (10 mg/kg), an investigational IV formulation of […]. Oral […] is an FDA- and […] agent used in fluorescence-guided surgery to visualize glioma infiltration and maximize extent of resection. LCMS/MS methods were developed to determine the levels of […] and PPIX in plasma and blood following IV administration of SONALA-001. Samples were analyzed using SCIEX ExionLC UHPLC system and the detection was performed on SCIEX QTRAP 6500+ mass spectrometer by multiple reaction monitoring mode to monitor the precursor-to-product ion transitions in positive electrospray ionization mode.", "note": "At least one read-out could not be matched to a standard name with certainty."}
{"smiles": "NCC(=O)CCC(=O)O", "note": "[5-ALA, 5-aminolevulinic acid]", "values": [{"measurement": "time at which 5-ALA plasma Cmax was measured", "value": 15, "unit": "min"}]}
